PMC11257983 (2024)
Changes are numbered by the printed parent chain. Names may count otherwise. These are yes or no findings as the source states them, for the method shown. For some of these results: Binding seen in cells or lysates may run through a third protein. Some results given as binding are weak or reduced against the parent protein; the word gives no strength. For some of these results: Tags and fused reporters may be left off the sequences shown.

Protein sequences, listed by entry. Tags and fused reporters are not part of them. Lines headed by an entry give the natural chain unless they say otherwise; changes in a name come on top.
UniProt Q24324: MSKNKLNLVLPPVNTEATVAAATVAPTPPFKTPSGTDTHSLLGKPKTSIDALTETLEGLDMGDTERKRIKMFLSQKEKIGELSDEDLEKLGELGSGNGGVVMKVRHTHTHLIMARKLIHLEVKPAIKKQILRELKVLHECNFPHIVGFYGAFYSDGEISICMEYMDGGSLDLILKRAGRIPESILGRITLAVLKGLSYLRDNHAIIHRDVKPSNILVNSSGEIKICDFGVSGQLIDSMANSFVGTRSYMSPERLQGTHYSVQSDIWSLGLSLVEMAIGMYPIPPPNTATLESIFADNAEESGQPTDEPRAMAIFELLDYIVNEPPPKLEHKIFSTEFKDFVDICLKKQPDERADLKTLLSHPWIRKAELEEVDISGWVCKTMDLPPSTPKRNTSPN

Assays:
[1] = molecular target: T1, Flag-CNK^2–549 (Drosophila) (UniProt Q7KNQ9); assay: pull-down; GST-HYP as bait, CNK, KSR and MEK variants co-expressed in S2 cells (Fig. 2c,d; Extended Data Fig. 7e); total lysates, overnight at 4 °C; immunoblot
T1 sequence: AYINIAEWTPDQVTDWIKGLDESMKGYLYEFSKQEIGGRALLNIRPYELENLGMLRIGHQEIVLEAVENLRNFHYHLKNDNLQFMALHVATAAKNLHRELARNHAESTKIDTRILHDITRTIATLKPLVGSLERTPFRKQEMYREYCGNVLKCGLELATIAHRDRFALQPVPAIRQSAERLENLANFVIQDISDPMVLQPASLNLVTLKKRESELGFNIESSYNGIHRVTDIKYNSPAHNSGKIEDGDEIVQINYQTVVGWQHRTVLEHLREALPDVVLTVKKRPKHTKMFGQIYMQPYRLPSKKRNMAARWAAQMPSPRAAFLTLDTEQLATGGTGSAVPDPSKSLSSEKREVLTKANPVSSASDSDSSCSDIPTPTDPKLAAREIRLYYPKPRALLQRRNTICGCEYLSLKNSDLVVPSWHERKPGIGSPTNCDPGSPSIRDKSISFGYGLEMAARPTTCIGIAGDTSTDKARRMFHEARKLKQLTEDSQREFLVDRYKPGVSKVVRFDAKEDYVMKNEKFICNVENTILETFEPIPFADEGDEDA

V5-KSR (Drosophila) = molecular target: T2, V5-KSR (Drosophila) (UniProt Q24171); assay: co-IP; anti-V5 immunoprecipitation of V5-KSR from S2 total lysates, protein A/G agarose, overnight at 4 °C; MEK blotted; without or with co-expressed CNK^2–549–HYP
T2 sequence: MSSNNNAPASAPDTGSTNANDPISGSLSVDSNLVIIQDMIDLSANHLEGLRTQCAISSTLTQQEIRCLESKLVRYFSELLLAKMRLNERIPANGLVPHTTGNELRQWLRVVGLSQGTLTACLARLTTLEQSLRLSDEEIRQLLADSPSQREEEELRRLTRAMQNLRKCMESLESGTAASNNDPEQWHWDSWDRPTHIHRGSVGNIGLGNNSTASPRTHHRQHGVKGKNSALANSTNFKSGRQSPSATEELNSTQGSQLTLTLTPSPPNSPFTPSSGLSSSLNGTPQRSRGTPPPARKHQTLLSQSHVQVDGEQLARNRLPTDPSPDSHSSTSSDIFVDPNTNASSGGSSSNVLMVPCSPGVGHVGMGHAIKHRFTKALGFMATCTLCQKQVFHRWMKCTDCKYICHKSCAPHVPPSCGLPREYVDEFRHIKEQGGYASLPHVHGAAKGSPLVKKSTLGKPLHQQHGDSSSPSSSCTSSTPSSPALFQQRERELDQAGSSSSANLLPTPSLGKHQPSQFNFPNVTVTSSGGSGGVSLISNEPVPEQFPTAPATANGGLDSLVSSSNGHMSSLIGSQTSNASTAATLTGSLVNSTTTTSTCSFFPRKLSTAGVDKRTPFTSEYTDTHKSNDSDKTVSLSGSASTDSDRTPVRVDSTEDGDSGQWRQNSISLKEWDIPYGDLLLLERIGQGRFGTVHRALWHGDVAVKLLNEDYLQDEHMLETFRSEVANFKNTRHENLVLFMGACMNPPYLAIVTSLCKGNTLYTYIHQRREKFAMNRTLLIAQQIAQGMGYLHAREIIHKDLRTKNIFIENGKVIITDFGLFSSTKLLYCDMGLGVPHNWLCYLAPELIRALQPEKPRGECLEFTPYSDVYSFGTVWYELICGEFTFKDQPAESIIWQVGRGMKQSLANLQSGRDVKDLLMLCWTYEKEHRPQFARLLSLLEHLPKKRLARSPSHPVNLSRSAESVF

[2] = molecular target: T3, GST-CNK^2–384 (Drosophila) (UniProt Q7KNQ9); assay: pull-down; GST-CNK fragments as bait; S2 cells co-transfected with Pyo-HYP, V5-KSR and Myc-MEK alone, in pairs or all three; total lysates in Triton lysis buffer (50 mM Tris pH 7.5, 150 mM NaCl, 0.2% Triton X-100), overnight at 4 °C; immunoblot
T3 sequence: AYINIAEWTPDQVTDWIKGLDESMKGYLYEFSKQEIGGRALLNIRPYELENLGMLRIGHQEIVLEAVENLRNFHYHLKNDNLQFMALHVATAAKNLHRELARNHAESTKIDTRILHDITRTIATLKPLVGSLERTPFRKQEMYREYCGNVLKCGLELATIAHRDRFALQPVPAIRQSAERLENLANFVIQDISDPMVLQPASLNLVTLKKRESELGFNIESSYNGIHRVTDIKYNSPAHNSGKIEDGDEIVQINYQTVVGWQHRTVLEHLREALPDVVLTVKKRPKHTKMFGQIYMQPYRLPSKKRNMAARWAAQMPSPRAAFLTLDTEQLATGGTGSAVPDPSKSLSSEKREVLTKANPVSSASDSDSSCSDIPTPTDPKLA

[3] = molecular target: T4, GST-CNK^2–549 (Drosophila) (UniProt Q7KNQ9); assay: as above
T4 sequence: T1 sequence

CNK^2–330 (Drosophila) = molecular target: T5, CNK^2–330 (Drosophila) (UniProt Q7KNQ9); assay: cryo-EM structure; 6 µM KSR–MEK complex mixed with 6.7 µM CNK–HYP complex, 1 mM MgCl2, 1 mM AMP–PNP, 50 µM trametinib, 4 °C; both purified
T5 sequence: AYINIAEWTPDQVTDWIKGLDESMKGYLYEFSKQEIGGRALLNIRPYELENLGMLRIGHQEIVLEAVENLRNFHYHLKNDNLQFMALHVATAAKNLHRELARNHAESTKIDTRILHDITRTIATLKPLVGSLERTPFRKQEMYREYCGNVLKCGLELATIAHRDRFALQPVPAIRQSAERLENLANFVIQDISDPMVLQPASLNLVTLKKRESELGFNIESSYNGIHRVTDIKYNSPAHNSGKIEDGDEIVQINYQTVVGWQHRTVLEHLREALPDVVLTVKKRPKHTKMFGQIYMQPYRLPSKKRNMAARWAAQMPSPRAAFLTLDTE

GST-HYP (Drosophila) [4] = molecular target: T6, GST-HYP (Drosophila) (UniProt Q8ML92); assay: pull-down; GST-HYP as bait, CNK^2–549 co-expressed in S2 cells with Ha-RAS^V12, Pyo-RAF, V5-KSR and Myc-MEK (RRKM); total lysates, overnight at 4 °C; immunoblot
T6 sequence: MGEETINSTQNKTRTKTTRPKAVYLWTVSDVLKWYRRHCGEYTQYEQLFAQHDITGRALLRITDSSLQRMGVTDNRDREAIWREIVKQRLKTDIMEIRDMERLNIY

GST-HYP (Drosophila) [5] = molecular target: T6, GST-HYP (Drosophila); assay: pull-down; GST-HYP as bait, Flag-CNK^2–549 variants co-expressed in S2 cells without other pathway components (binary CNK–HYP interaction); total lysates, overnight at 4 °C; immunoblot
[6] = molecular target: T1, Flag-CNK^2–549 (Drosophila); assay: pull-down; GST-HYP as bait, CNK^2–549 co-expressed in S2 cells with Ha-RAS^V12, Pyo-RAF, V5-KSR and Myc-MEK (RRKM); total lysates, overnight at 4 °C; immunoblot

Myc-MEK E323R (from UniProt Q24324 1-396)
binding [1]: binds | binding (V5-KSR (Drosophila)): binds

B1: Pyo-HYP (protein, UniProt Q8ML92 2-106)
chain: GEETINSTQNKTRTKTTRPKAVYLWTVSDVLKWYRRHCGEYTQYEQLFAQHDITGRALLRITDSSLQRMGVTDNRDREAIWREIVKQRLKTDIMEIRDMERLNIY
binding [2]: binds | binding [3]: binds

B2: KSR^654–966 (domain or fragment, UniProt Q24171 654-966)
chain: TEDGDSGQWRQNSISLKEWDIPYGDLLLLERIGQGRFGTVHRALWHGDVAVKLLNEDYLQDEHMLETFRSEVANFKNTRHENLVLFMGACMNPPYLAIVTSLCKGNTLYTYIHQRREKFAMNRTLLIAQQIAQGMGYLHAREIIHKDLRTKNIFIENGKVIITDFGLFSSTKLLYCDMGLGVPHNWLCYLAPELIRALQPEKPRGECLEFTPYSDVYSFGTVWYELICGEFTFKDQPAESIIWQVGRGMKQSLANLQSGRDVKDLLMLCWTYEKEHRPQFARLLSLLEHLPKKRLARSPSHPVNLSRSAESVF
binding (CNK^2–330 (Drosophila)): binds

B3: Flag-CNK^2–549 I123D (domain or fragment, UniProt Q7KNQ9 2-549)
chain: T1 sequence with I122D
binding (GST-HYP (Drosophila) [4]): binds | binding (GST-HYP (Drosophila) [5]): binds

B4: Flag-CNK^2–549 L152D (domain or fragment, UniProt Q7KNQ9 2-549)
chain: T1 sequence with L151D
binding (GST-HYP (Drosophila) [4]): binds | binding (GST-HYP (Drosophila) [5]): binds

B5: Flag-CNK^2–549 D81R (domain or fragment, UniProt Q7KNQ9 2-549)
chain: T1 sequence with D80R
binding (GST-HYP (Drosophila) [5]): binds

B6: Flag-CNK^2–549 K283D (domain or fragment, UniProt Q7KNQ9 2-549)
chain: T1 sequence with K282D
binding (GST-HYP (Drosophila) [5]): binds

B7: Flag-CNK^2–549 D81R_K283D (domain or fragment, UniProt Q7KNQ9 2-549)
chain: T1 sequence with D80R, K282D
binding (GST-HYP (Drosophila) [4]): binds | binding (GST-HYP (Drosophila) [5]): binds

B8: Flag-CNK^2–549 M197E (domain or fragment, UniProt Q7KNQ9 2-549)
chain: T1 sequence with M196E
binding (GST-HYP (Drosophila) [5]): binds

B9: Flag-CNK^2–549 D195K (domain or fragment, UniProt Q7KNQ9 2-549)
chain: T1 sequence with D194K
binding (GST-HYP (Drosophila) [5]): binds

B10: Flag-CNK^2–549 V198E (domain or fragment, UniProt Q7KNQ9 2-549)
chain: T1 sequence with V197E
binding (GST-HYP (Drosophila) [5]): binds

B11: Flag-CNK^2–549 Q200A (domain or fragment, UniProt Q7KNQ9 2-549)
chain: T1 sequence with Q199A
binding (GST-HYP (Drosophila) [5]): binds

B12: V5-KSR E926R (protein, UniProt Q24171 1-966)
chain: T2 sequence with E926R
binding [6]: binds

B13: V5-KSR R913E (protein, UniProt Q24171 1-966)
chain: T2 sequence with R913E
binding [1]: binds
